Data: the supplement of paper PMC11732987, “Enantioselective OTUD7B fragment discovery through chemoproteomics screening and high-throughput optimisation” (Communications Chemistry, 2025)
The list shows a part of the results. The data scatter; read single values as rough.

Chains of the proteins cited; added tags and fusions are not shown. Lines headed by an entry give the natural chain unless they say otherwise; changes in a name come on top. Residues count along the entry.
UniProt P09936: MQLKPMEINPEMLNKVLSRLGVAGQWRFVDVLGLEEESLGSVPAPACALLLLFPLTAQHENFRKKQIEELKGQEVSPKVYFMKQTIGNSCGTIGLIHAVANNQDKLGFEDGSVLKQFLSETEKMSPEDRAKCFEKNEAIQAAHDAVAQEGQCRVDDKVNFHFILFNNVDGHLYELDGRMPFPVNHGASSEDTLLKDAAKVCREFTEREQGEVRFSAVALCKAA
UniProt P31930, 143-163: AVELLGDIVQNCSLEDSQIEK
UniProt Q9NVA1: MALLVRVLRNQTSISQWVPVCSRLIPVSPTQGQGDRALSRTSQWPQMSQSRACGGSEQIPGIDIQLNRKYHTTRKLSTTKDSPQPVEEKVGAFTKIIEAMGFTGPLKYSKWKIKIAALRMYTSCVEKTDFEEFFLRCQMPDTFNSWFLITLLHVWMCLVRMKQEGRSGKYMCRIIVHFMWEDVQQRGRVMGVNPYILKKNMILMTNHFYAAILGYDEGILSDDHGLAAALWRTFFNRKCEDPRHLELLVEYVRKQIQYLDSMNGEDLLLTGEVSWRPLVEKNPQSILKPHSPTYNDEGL
UniProt Q70CQ2: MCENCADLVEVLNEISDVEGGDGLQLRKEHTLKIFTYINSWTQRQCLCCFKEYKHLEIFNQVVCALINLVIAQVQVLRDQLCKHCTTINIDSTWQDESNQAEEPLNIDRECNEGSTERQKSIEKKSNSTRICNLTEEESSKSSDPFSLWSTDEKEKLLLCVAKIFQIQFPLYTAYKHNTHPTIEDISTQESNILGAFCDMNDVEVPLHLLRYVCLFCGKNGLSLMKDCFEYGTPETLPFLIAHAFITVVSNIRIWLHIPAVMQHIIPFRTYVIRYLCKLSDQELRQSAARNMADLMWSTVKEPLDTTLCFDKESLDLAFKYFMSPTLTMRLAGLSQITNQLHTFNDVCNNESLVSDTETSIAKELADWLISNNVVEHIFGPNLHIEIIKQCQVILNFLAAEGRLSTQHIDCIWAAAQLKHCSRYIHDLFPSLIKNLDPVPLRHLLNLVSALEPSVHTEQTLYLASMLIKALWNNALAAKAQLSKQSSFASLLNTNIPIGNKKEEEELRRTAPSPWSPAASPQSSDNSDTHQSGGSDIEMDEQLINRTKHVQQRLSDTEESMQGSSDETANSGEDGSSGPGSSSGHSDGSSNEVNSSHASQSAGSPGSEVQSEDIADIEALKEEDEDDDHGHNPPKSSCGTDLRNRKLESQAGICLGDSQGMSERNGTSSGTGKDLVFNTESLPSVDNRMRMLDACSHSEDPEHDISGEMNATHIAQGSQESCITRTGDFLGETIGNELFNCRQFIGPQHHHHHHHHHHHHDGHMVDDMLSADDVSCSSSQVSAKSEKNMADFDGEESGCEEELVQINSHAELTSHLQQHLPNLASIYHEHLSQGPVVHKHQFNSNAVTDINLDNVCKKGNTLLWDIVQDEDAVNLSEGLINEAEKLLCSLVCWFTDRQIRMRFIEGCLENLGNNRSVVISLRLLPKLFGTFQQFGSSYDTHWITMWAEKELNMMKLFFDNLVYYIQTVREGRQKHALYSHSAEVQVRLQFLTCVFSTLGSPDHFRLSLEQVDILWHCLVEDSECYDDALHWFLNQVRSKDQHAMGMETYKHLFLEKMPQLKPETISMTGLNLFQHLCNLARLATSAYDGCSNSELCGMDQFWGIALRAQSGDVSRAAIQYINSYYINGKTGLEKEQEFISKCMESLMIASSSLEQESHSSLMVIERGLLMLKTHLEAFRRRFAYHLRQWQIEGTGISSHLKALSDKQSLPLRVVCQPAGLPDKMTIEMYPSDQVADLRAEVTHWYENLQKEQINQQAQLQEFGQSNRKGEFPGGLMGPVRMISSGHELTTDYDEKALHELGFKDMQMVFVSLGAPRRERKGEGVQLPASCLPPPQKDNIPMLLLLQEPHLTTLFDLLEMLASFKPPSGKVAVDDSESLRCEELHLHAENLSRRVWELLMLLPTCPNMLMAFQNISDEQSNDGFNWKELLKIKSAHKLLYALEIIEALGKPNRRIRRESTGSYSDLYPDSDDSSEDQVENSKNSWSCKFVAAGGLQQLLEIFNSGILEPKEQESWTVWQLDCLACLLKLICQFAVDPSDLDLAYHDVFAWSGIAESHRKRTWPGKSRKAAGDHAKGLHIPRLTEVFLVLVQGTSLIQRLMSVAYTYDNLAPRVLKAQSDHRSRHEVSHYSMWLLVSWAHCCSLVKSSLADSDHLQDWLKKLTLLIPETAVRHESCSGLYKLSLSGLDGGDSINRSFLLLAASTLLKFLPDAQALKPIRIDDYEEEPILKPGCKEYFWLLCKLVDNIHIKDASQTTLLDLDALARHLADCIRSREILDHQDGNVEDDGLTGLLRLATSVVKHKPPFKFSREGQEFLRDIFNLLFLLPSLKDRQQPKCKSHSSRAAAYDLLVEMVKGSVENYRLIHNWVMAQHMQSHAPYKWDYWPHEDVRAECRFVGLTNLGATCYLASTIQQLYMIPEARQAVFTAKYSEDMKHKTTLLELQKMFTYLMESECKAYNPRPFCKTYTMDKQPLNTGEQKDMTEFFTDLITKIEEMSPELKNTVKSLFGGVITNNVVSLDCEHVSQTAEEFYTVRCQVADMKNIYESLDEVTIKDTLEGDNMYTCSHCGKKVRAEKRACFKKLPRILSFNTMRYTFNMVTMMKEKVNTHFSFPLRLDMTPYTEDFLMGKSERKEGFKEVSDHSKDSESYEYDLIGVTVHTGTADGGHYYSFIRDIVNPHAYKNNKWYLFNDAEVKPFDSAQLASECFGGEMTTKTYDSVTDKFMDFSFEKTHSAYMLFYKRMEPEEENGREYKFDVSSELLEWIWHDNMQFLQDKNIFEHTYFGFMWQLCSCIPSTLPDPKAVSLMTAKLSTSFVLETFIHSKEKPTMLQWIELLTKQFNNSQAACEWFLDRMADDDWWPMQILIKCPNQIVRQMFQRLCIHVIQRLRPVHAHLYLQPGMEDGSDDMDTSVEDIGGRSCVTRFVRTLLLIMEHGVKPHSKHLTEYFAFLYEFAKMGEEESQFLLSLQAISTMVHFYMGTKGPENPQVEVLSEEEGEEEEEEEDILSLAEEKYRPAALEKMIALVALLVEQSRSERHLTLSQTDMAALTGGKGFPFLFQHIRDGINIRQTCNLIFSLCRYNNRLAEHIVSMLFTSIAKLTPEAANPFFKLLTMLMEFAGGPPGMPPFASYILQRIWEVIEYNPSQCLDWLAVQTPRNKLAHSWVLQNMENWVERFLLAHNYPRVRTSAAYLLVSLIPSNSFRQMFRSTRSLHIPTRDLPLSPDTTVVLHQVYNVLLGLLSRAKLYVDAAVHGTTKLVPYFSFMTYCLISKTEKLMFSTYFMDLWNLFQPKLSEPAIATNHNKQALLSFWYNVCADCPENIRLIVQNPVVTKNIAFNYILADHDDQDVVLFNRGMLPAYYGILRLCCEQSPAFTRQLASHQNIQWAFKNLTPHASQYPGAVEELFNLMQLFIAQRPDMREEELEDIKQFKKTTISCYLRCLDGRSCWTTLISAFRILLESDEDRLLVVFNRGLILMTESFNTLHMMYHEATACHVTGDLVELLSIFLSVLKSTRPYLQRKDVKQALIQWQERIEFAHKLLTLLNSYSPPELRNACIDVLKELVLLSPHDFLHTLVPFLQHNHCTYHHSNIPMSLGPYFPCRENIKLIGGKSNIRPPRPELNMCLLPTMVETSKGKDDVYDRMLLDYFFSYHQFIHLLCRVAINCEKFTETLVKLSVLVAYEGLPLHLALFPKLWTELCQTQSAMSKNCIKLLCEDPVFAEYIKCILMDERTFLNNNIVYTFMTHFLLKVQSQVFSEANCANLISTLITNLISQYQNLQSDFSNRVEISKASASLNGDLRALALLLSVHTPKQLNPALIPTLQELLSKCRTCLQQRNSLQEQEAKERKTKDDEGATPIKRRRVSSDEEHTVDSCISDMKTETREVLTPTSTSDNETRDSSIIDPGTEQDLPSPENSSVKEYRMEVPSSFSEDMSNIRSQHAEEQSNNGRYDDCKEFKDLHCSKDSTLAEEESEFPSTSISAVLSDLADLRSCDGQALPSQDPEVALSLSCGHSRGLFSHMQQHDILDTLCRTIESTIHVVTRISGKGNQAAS
UniProt Q9NYU1: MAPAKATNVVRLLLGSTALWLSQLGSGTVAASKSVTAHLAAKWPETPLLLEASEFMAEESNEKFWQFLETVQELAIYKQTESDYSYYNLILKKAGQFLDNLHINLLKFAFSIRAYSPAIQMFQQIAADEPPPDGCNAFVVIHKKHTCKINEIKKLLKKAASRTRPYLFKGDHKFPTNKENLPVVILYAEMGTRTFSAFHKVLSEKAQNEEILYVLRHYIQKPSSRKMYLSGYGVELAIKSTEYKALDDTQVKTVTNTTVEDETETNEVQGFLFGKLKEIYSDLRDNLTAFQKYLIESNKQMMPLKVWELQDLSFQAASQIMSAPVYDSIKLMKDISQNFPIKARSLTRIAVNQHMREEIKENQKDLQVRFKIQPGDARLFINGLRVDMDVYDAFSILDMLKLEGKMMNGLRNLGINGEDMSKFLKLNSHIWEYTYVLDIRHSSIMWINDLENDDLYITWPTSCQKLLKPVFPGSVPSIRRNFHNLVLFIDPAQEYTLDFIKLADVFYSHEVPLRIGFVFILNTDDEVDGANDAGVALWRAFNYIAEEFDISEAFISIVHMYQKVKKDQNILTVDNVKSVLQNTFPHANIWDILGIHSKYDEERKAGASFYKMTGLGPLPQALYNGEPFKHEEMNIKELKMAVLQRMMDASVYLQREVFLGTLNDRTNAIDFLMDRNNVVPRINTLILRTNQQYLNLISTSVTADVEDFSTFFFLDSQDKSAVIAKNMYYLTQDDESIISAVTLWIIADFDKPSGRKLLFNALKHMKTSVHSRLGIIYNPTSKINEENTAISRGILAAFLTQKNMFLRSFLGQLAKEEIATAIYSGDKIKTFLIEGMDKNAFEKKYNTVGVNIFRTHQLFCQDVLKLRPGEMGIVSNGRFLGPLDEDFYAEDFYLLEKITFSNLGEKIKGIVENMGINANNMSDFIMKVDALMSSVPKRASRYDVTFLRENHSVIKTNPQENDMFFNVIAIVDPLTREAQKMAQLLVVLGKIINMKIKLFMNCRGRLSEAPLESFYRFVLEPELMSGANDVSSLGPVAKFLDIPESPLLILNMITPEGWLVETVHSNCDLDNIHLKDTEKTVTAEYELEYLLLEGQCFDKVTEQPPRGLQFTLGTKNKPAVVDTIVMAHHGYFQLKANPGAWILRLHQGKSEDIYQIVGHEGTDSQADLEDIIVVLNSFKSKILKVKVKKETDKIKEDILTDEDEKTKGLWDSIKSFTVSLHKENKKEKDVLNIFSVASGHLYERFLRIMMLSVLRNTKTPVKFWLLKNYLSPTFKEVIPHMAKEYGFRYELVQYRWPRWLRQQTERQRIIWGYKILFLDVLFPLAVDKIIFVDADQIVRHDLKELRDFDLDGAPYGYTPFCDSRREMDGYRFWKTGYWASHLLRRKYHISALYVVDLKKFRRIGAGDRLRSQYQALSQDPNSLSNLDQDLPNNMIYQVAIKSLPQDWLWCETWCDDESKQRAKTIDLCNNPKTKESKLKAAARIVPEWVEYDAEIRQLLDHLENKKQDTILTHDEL
UniProt Q9Y3A2: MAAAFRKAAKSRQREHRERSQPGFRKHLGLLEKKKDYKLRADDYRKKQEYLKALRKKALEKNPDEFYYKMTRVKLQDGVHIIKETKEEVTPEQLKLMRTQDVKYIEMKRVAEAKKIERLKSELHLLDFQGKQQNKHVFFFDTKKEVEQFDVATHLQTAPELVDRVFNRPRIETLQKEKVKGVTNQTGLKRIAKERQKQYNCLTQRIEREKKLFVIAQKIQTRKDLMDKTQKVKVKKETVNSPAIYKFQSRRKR
UniProt P22695: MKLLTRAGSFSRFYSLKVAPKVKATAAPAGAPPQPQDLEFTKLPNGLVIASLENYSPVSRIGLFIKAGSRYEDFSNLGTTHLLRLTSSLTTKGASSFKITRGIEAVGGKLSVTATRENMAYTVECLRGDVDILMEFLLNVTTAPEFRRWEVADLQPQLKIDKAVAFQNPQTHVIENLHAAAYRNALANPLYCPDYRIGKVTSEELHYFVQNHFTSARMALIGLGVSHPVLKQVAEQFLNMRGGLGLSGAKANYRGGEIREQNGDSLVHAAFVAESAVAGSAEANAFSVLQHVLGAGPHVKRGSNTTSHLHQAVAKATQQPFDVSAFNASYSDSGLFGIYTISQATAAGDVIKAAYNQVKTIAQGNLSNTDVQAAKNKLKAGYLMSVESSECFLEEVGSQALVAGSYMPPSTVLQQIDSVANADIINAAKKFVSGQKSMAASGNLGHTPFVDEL
UniProt Q96RL1, 430-460: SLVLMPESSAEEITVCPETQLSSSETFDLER
UniProt Q9BZM5: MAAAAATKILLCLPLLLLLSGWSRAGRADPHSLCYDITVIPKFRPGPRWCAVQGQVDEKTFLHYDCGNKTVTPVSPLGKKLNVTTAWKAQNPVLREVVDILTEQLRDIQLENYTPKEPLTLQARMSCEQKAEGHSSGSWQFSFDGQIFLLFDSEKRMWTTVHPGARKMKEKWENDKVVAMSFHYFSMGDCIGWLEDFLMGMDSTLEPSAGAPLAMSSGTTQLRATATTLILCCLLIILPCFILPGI

The targets below were run with ClCC(=O)N[C@H]1CCCc2ccccc12 (assay: log2 mean competition ratio of IA-DTB cysteine labelling (DMSO/compound) (log2 ratio); higher = stronger cysteine engagement by compound). Details: 200 µM; treatment time: 4 h; cell line lysate: HEK293T.
Method: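 IA-DTB competitive cysteine chemoproteomics in HEK293T RIPA lysate. Lysates were treated with compound 29 or 30 at 50 or 200 µM for 4 h, then IA-DTB (500 µM, 1 h), trypsin-digested, NeutrAvidin-enriched and analysed by diaPASEF. Competition ratio = intensity DMSO / intensity compound (n=4 treated, n=64 DMSO); binding: mean log2 CR ≥ 1 and p ≤ 0.05 plus QC filters. Target is the cysteine site.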

Target | log2 mean competition ratio
USP14 C257 (UniProt P54578) | -0.145
UCHL1 C152 (UniProt P09936) | -0.0733
UHRF2 C432 (UniProt Q96PU4) | 0.156
UQCRC1 C154 (UniProt P31930) | -0.395
USP28 C952 (UniProt Q96RU2) | 0.0506
USP15 C570 (UniProt Q9Y4E8) | -0.164
UTRN C3076 (UniProt P46939) | 0.134
USP46 C222 (UniProt P62068) | -0.373
UQCC1 C124 (UniProt Q9NVA1) | -0.117
UTP6 C370 (UniProt Q9NYH9) | 0.168
VCP C105 (UniProt P55072) | -0.122
USPL1 C534 | -0.181
VPS13C C3707 (UniProt Q709C8) | 0.0761
USP34 C907 (UniProt Q70CQ2) | -0.344
UGGT2 C1468 (UniProt Q9NYU1) | 0.275
UTP11 C201 (UniProt Q9Y3A2) | 0.284
USP30 C234 (UniProt Q70CQ3) | 0.212
VPS29 C15 (UniProt Q9UBQ0) | -0.0947
USP32 C1183 (UniProt Q8NFA0) | 0.0314

Rewritten in CSV form: part of the list above
Target,log2 mean competition ratio
USP34 C907 (UniProt Q70CQ2),-0.344
UGGT2 C1468 (UniProt Q9NYU1),0.275
UTP11 C201 (UniProt Q9Y3A2),0.284

Remaining list, next part

Target | log2 mean competition ratio
VPS13C C2925 (UniProt Q709C8) | 0.174
UBR4 C953 (UniProt Q5T4S7) | -0.0307
USP7 C799 | -0.154
VPS18 C421 (UniProt Q9P253) | 0.18
UBR5 C2084 (UniProt O95071) | -0.12
UQCRC2 C125 (UniProt P22695) | -0.353
URI1 C420 (UniProt O94763) | -0.115
VAPA C179 (UniProt Q9P0L0) | 0.114
UIMC1 C445 (UniProt Q96RL1) | 0.289
UPF2 C315 (UniProt Q9HAU5) | -0.21
USP42 C588 (UniProt Q9H9J4) | 0.00529
USP22 C44 (UniProt Q9UPT9) | -0.127
ULBP2 C34 (UniProt Q9BZM5) | 0.0684
USP34 C132 (UniProt Q70CQ2) | 0.255
VARS2 C484 | 0.0732
USE1 C17 (UniProt Q9NZ43) | -0.264
VARS2 C713 | 0.126
VPS11 C128 (UniProt Q9H270) | 0.236
UNC45A C503 (UniProt Q9H3U1) | 0.265
